Like-named read-outs stand apart in the source and are kept apart here. Not every detail of the peptide structures is certain; ends, links or a residue may be inferred. Non-standard residues stand in square brackets, D forms with d. Residues, ends and D or L forms follow the SMILES beside them. Nle = CCCC[C@H](N)C(=O)O
Tested on: diabetic foot ulcers
Format: in vivo, human
Conditions: for odds ratio analysis: times more likely to have wounds heal completely vs placebo/standard of care: 0.03%; for increase in complete healing of wounds within 12 weeks compared with placebo: high dose (0.03%); for diabetic wounds that achieved 100% closure in 12 weeks or less: daily for 4 weeks
Protocol: The study was designed as a randomized, parallel-group, double-blind, placebo-controlled, multi-center trial. After 14-days of best-of-care to evaluate ulcer healing and ensure the wounds were chronic, four-weeks of active treatment were then followed by eight weeks of observation and assessment. The study compared the effects of two concentrations of NorLeu^3-A(1-7) and placebo, measuring both clinical efficacy and safety. Sustained tissue integrity was evaluated for all subjects during a follow-up period lasting 12 weeks after complete wound closure.
Subjects were randomized in a 1:1:1 ratio to one of the three treatment groups: • Group 1: Placebo Vehicle Control without NorLeu^3-A(1-7) (also referred to as “DSC127”) (2% Hydroxyethyl Cellulose (HEC) with 0.1% methyl paraben, 0.02% propyl paraben) • Group 2: 0.03% NorLeu^3-A(1-7) in Vehicle • Group 3: 0.01% NorLeu^3-A(1-7) in Vehicle
The four-week treatment period required daily application of the treatment to the wound site. The first application each week was at the clinic and for the remainder of the week the patient self-administered the treatment.
If wound healing occurred during the treatment or assessment periods a final assessment visit was conducted and the integrity was assessed 4 and 12 weeks later (usually weeks 16 and 24 of the study).
The following patients were considered eligible for participation in the study: • 1) Male or female ambulatory subjects who were at least 18 years of age at screening • 2) At start of Screening Period and upon enrollment into the study, had at least one chronic non-healing Wagner Grade 1 or Grade 2 (ulcers of partial or full thickness and not involving bone, tendon or capsule (probing to tendon or capsule), and that have no sign of infection or myelitis) plantar neuropathic diabetic ulcer between 1.0-6.0 cm^2 on the midfoot or forefoot, including the toes but excluding the heel. Non-healing is defined as present for a minimum of one month but not longer than ten months with less than 30% reduction in size in response to treatment (non-study treatment, but including off-loading) during the Screening Period. If more than one ulcer is present that meets the inclusion criteria, the larger was studied and treated according to the protocol. Non-study ulcers were treated according to institutional best practice, using per protocol offloading. • 3) Have an Ankle Brachial Index (ABI) greater than 0.7 for neuroischemic or greater than 0.8 for neuropathic DFU. • 4) Have a Tissue Oxygen Pressure (TcPO2) greater than 40 mm Hg or great toe systolic pressure greater than 50 mmHg to ensure healing potential. • 5) Have Type I or Type II diabetes under metabolic control as confirmed by a glycosylated hemoglobin (HbAlc) of less than or equal to 12%, and a serum creatinine level of no greater than 3 mg/dL obtained within 3 months of study enrollment. • 6) Assess the baseline level of neuropathy of the foot using Semmes-Weinstein filaments. […]

## CCCC[C@H](NC(=O)[C@H](CCCNC(=N)N)NC(=O)[C@@H](N)CC(=O)O)C(=O)N[C@@H](Cc1ccc(O)cc1)C(=O)N[C@H](C(=O)N[C@@H](Cc1c[nH]cn1)C(=O)N1CCC[C@H]1C(=O)O)[C@@H](C)CC [NorLeu^3-A(1-7), Asp-Arg-Nle-Tyr-Ile-His-Pro] (H-DR[Nle]YIHP-OH; N-terminus and C-terminus assumed)
ITT population
  odds ratio analysis: times more likely to have wounds heal completely vs placebo/standard of care: 2.3 times
  increase in complete healing of wounds within 12 weeks compared with placebo: 21%
Intent-to-Treat (ITT) population, 0.01% dose (low dose) topical, placebo 33%
  diabetic wounds that achieved 100% closure in 12 weeks or less: 30%
Intent-to-Treat (ITT) population, 0.03% (high dose) topical, placebo 33%
  diabetic wounds that achieved 100% closure in 12 weeks or less: 54%
PP high-dose population, through 12 weeks, p=0.049
  improvement in the rate of healing compared with the control arm, as measured by depth of ulcer using covariate analysis: 50%
PP population
  odds ratio analysis: times more likely to have wounds heal completely vs placebo/standard of care: 3.0 times
  increase in complete healing of wounds within 12 weeks compared with placebo: 27%
Per Protocol (PP) population, 0.01% dose topical, placebo 38%
  diabetic wounds that achieved 100% closure in 12 weeks or less: 28%
Per Protocol (PP) population, 0.03% dose topical, placebo 38%
  diabetic wounds that achieved 100% closure in 12 weeks or less: 65%

Reference: patent publication US8536231B2, “Methods for treating diabetic foot ulcers” (priority 2011, dated 2013)
